From the supplement of paper PMC12578635
± gives the standard deviation of the averaged measurements. The list shows a part of the results. Repeats are few or missing, and single values can be far off.

Each molecule was assayed on RAW 264.7 macrophages infected with S. aureus JE2-lux (assay: host macrophage viability (CellTiter-Fluor) relative to DMSO vehicle; higher = more viable host cells). Conditions: 10 µM; treatment time 4 h; gentamicin 50 µg/ml.
In the case of `Cc1ccc(-c2csc(-c3cccn3CC(=O)NCc3cccc(Br)c3)n2)cc1`, the host macrophage viability is reported as 112%.
Work on `COc1cc(CSc2nc(=O)n3cc(C)ccc3n2)cc(OC)c1` yielded a host macrophage viability of 131%.
`COc1cccc2c(=O)n(CC(=O)NCc3ccc(F)cc3)ccc12` gave a host macrophage viability of 116%.
`C=CCn1/c(=N/C(=O)CN2C(=O)CCC2=O)sc2cc(C(=O)OC)ccc21` was tested, and the host macrophage viability was 108%.
For `COc1ccc(C2CC(c3cccs3)=NN2C(=O)Cn2cnc3c(cnn3CCO)c2=O)cc1` (stereo not drawn), the host macrophage viability was 120%.
With `Cc1cccc(NC(=O)CSc2ncc(S(=O)(=O)c3ccc(C)c(C)c3)c(N)n2)c1` the host macrophage viability was 122%.
`Cn1c(=O)c2c(SCC(=O)NCc3ccc4c(c3)OCO4)ccnc2n(C)c1=O` gave a host macrophage viability of 131%.
`Brc1cccc2sc(N3CCc4ccccc4C3)nc12` was tested, and the host macrophage viability was 98.3 ± 5.2%.
Molecule `Cc1ccnc(N2CCCC(C(=O)Nc3ccccc3-c3ccccc3)C2)n1` (stereo not drawn) has a host macrophage viability of 118%.
Molecule `CCOc1ccc(-c2noc(Cn3ncn4nc(-c5ccc(OC)cc5)cc4c3=O)n2)cc1OC` has a host macrophage viability of 102%.
In the case of `Cc1cccc(S(=O)(=O)NCCOc2ccc(-c3ccc(F)cc3)nn2)c1`, the host macrophage viability is reported as 101%.
`CCN1C(=O)c2cccc3c(NC(=O)CN4C(=O)c5ccccc5C4=O)ccc1c23` showed a host macrophage viability of 114%.
`Cc1ccc(-n2ncc3c(SCC(=O)Nc4nnc(C)s4)ncnc32)c(C)c1` was tested, and the host macrophage viability was 99.1%.
`Cc1cc(C)cc(NS(=O)(=O)c2c[nH]c(=O)[nH]c2=O)c1` showed a host macrophage viability of 119%.
`COc1ccc(NC(=S)N2CCC(n3cnc4ccccc43)CC2)c(OC)c1` showed a host macrophage viability of 112%.
Work on `O=C(O)CCN1C(=O)/C(=C/c2cc([N+](=O)[O-])ccc2OCc2ccccc2Cl)SC1=S` yielded a host macrophage viability of 108%.
`O=C(Nc1cc(Cl)cc(Cl)c1)c1ccc(S(=O)(=O)N2CCCCCC2)cc1` gave a host macrophage viability of 88.9%.
`O=C(NCc1ccc2[nH]c3c(c2c1)CCCC3)NC1CCCCC1` was tested, and the host macrophage viability was 144 ± 37%.
`COc1cccc(NC(=O)CSc2nnc3ccccn23)c1` was tested, and the host macrophage viability was 104%.
With `COc1ccc(CCNC(=O)CSc2nc3sc4c(c3c(=O)[nH]2)CCC4)cc1OC` the host macrophage viability was 127%.
`CCn1cccc1-c1nc(C)c(C(=O)Nc2cc(C)cc(C)c2)s1` showed a host macrophage viability of 111%.
`COC(=O)c1cccc(Oc2nnc(-c3ccc(F)cc3)c3ccccc23)c1` was tested, and the host macrophage viability was 117 ± 12%.
With `CCOc1ccc2[nH]c(=O)c(CN(Cc3cccnc3)C(=O)Nc3ccccc3F)cc2c1` the host macrophage viability was 124%.
`Fc1ccc(-c2csc3ncnc(NCC4CCCO4)c23)cc1` (stereo not drawn) gave a host macrophage viability of 149%.
Molecule `C=CCn1/c(=N/C(=O)CSCC(=O)N2CCN(C(=O)OCC)CC2)sc2cc(Cl)ccc21` has a host macrophage viability of 120%.
`Cc1c(-c2n[nH]c(=S)n2C)sc2nc3n(c(=O)c12)CCC3` showed a host macrophage viability of 120%.
Molecule `Cc1nc2sc(C(c3cccs3)N3CCN(CCO)CC3)c(O)n2n1` (stereo not drawn) has a host macrophage viability of 102 ± 2.3%.
In the case of `CCn1nc(C)c(C(=O)NCCn2nc3c(C)cc4ccc(C)cc4n3c2=O)c1C`, the host macrophage viability is reported as 115%.
With `COc1ccc(NC(=O)CSc2nc(=O)n(CCN3CCOCC3)c3c2CCC3)cc1OC` the host macrophage viability was 130%.
In the case of `COc1cc(C)c(S(=O)(=O)Nc2cccc(-n3c(C)nc4ccccc4c3=O)c2)cc1C`, the host macrophage viability is reported as 120%.
Work on `CC(C)N1C(=O)/C(=C2/C(=O)N(CC(=O)Nc3ccccc3F)c3ccccc32)SC1=S` yielded a host macrophage viability of 101%.
In the case of `CC(=O)NNC(=O)CSc1nc2sc3c(c2c(=O)[nH]1)CCC(C(C)(C)C)C3` (stereo not drawn), the host macrophage viability is reported as 83%.
Work on `CCOc1ccc(OCC)c(NS(=O)(=O)c2ccc3onc(C(=O)N4CCCC4)c3c2)c1` yielded a host macrophage viability of 105%.
Work on `COc1cccc(-c2csc(/C(C#N)=C\Nc3ccc([N+](=O)[O-])cc3)n2)c1` yielded a host macrophage viability of 119 ± 9.9%.
Work on `CC(=O)Nc1ccc2nc(C)n(CC(=O)Nc3ccc(F)cc3)c(=O)c2c1` yielded a host macrophage viability of 123%.
For `COC(=O)C1=C(C)OC(N)=C(C#N)C1c1ccc(OC)cc1` (stereo not drawn), the host macrophage viability was 113%.
Molecule `CCOc1ccc(-c2cccc(NC(=O)c3ccco3)c2)nn1` has a host macrophage viability of 111%.
Molecule `Cc1cc2oc(=O)cc(-c3cc4ccccc4o3)c2cc1O` has a host macrophage viability of 102%.
Molecule `O=C(O)CSc1nnc2c(n1)[nH]c1cccc(C(F)(F)F)c12` has a host macrophage viability of 134%.
`CC(C)CCNC(=O)Nc1c(-c2ccncc2)[nH]c2c(Cl)cccc12` was tested, and the host macrophage viability was 110%.
With `NC(=O)c1oc2ccccc2c1NC(=O)Cc1ccc([N+](=O)[O-])cc1` the host macrophage viability was 107%.
Work on `Cn1nc(C2CC2)cc1C(=O)Nc1cccc(-c2csnn2)c1` yielded a host macrophage viability of 109%.
`CC1=C(C(=O)Nc2ccccc2C)C(c2ccccc2)NC(=O)N1` (stereo not drawn) gave a host macrophage viability of 99.5%.
`O=C(CSc1nc(-c2ccccc2)cc(=O)[nH]1)NCc1ccc(F)cc1` gave a host macrophage viability of 126%.
`CN1C(=O)c2cccc(NC(=O)c3cc(-c4cccs4)nc4ccccc34)c2C1=O` was tested, and the host macrophage viability was 140%.
In the case of `CC(C)(C)c1cc(Br)ccc1OCC(=O)Nc1nnc[nH]1`, the host macrophage viability is reported as 114%.
`Cc1[nH]c2ccccc2c1CCNC(=O)c1ccc2nccnc2c1` showed a host macrophage viability of 110%.
Molecule `Cc1cc(N2CCC(C(=O)Nc3cccc4ccccc34)CC2)n2ncnc2n1` has a host macrophage viability of 129%.
In the case of `CN1C(=O)C2ON(c3ccccc3)C(c3ccccc3)C2C1=O` (stereo not drawn), the host macrophage viability is reported as 114%.
`COc1ccc(Cn2c(C)nc3cc(NC(=O)Nc4ccc(Cl)cc4)c(C)nc32)cc1` gave a host macrophage viability of 110%.
For `N#Cc1c(/N=C/c2ccccc2O)oc(-c2ccco2)c1-c1ccco1`, the host macrophage viability was 135 ± 7.7%.
`COC(=O)C1=C(NC(=O)COc2ccc3ccccc3c2)CCS1` showed a host macrophage viability of 115%.
In the case of `COc1ccc(OC)c2[nH]c(=O)c(CCNC(=O)Cc3cccc(C)c3)cc12`, the host macrophage viability is reported as 120%.
For `O=C(Nc1nc2c(s1)CSc1ccccc1-2)c1coc2ccccc2c1=O`, the host macrophage viability was 101%.
`CCC(C(=O)N1CCN(C)CC1)n1cnc2c(sc3ncccc32)c1=O` (stereo not drawn) gave a host macrophage viability of 102%.
`O=c1c2ccccc2nc2c(-c3nc(-c4ccc5c(c4)OCO5)no3)cccn12` showed a host macrophage viability of 124%.
For `COc1ccc2c(c1)CCc1c(-c3nc(-c4ccc(Cl)cc4)no3)n[nH]c1-2`, the host macrophage viability was 119%.
With `Cc1oc(-c2ccno2)cc1S(=O)(=O)N1CCCc2ccccc21` the host macrophage viability was 115%.
`N#Cc1c(NC(=O)CC(=O)CSc2ncnc3sc4c(c23)CCC4)sc2c1CCCC2` showed a host macrophage viability of 127%.
Molecule `O=S(=O)(NCc1ccc(-c2nn3cnnc3s2)cc1)c1ccccc1` has a host macrophage viability of 132%.
Work on `COC(=O)c1ccc(NC(=O)CSc2nc3c([nH]2)c(=O)n(C)c(=O)n3C)cc1` yielded a host macrophage viability of 98.4%.
Work on `CCc1ccc(NS(=O)(=O)c2[nH]nc(C)c2C(=O)n2nc(C)cc2C)cc1` yielded a host macrophage viability of 121%.
`O=C(Nn1cnc2c(cnn2-c2cccc(Cl)c2)c1=O)c1ccccc1C(F)(F)F` was tested, and the host macrophage viability was 114%.
`C=CCOc1ccccc1NC(=O)c1cnc(C(C)(C)C)nc1` showed a host macrophage viability of 114%.
`Nc1c(C(=O)Nc2ccc(Oc3ccccc3)cc2)sc2nc3c(cc12)C(=O)CCC3` was tested, and the host macrophage viability was 129%.
With `COc1ccc(C2C(C#N)=C(N)SC3C(=O)N(c4ccc(C)cc4)C(=O)C32)cc1` (stereo not drawn) the host macrophage viability was 117%.
`COc1cccc2cc(C(=O)C3=C(O)C(=O)N(CCCN(C)C)C3c3cccnc3)oc12` (stereo not drawn) was tested, and the host macrophage viability was 89.5%.
`Cc1csc(SCc2cc(=O)c(OC(=O)c3cc4ccccc4o3)co2)n1` was tested, and the host macrophage viability was 113%.
For `Cc1c(C)n2c(SCC(=O)N3CCc4ccccc43)nnc2[nH]c1=O`, the host macrophage viability was 107%.
For `COCCCNc1oc(-c2ccc([N+](=O)[O-])cc2)nc1C#N`, the host macrophage viability was 140%.
For `COc1ccc(CN(Cc2nc3ccccc3c(=O)[nH]2)C(=O)c2ccco2)cc1`, the host macrophage viability was 117%.
For `O=C1c2oc3ccc(Cl)cc3c(=O)c2C(c2ccncc2)N1CCc1ccccc1` (stereo not drawn), the host macrophage viability was 109%.
Molecule `FC(F)(F)c1cccc(CSc2ncnc3ccccc23)c1` has a host macrophage viability of 96 ± 4.2%.
Work on `CC(=O)c1ccc(NC(=O)CSc2nc(C)cc(C)c2C#N)cc1` yielded a host macrophage viability of 113%.
`COc1c(C(=O)NC2CCCOC2)cnc2cc(Cl)ccc12` (stereo not drawn) gave a host macrophage viability of 113%.
For `O=C1OCCC1Sc1nc2ccccc2c(=O)[nH]1` (stereo not drawn), the host macrophage viability was 118%.
With `CCOCCn1ccc2c(OCC(=O)NCCc3ccc(OC)c(OC)c3)cccc2c1=O` the host macrophage viability was 105%.
Molecule `O=C(CC1NC(=O)NC1=O)Nc1ccc(F)cc1` (stereo not drawn) has a host macrophage viability of 119%.
Molecule `CCOc1ccc(NC(=O)CCn2c(=S)[nH]c3ccccc3c2=O)cc1` has a host macrophage viability of 123%.
`O=C(NCC(c1ccco1)N1CCc2ccccc21)C(=O)Nc1ccc([N+](=O)[O-])cc1` (stereo not drawn) gave a host macrophage viability of 123%.
With `CCn1cc(C(=O)N2CCC(n3c(C)nc4sc(C)c(C)c4c3=O)CC2)c(C)n1` the host macrophage viability was 118%.
In the case of `C=CCOc1ccccc1NC(=O)c1cc2ncc(C(C)=O)c(C)n2n1`, the host macrophage viability is reported as 126%.
Work on `Cc1ccc(NS(=O)(=O)c2cc(-c3nc(C)cs3)cs2)c(Br)c1` yielded a host macrophage viability of 103%.
For `COc1ccc(C2CC(=O)n3nc(-c4ccc(Cl)c(Cl)c4)nc3S2)cc1` (stereo not drawn), the host macrophage viability was 118%.
`Cc1nn(-c2nc3ccccc3s2)c2nc(C(C)(C)C)cc(C(F)(F)F)c12` showed a host macrophage viability of 114%.
Molecule `O=C(O)c1cccnc1SCC(=O)N1CCN(c2ccccn2)CC1` has a host macrophage viability of 130%.
In the case of `CCOC(=O)c1s/c(=N\C(=O)CN2C(=O)c3ccccc3C2=O)n(C)c1C`, the host macrophage viability is reported as 114 ± 5.2%.
In the case of `Cc1cccc(N2CCN(CCCNC(=O)c3cc(-c4ccccn4)nc4ccccc34)CC2C)c1` (stereo not drawn), the host macrophage viability is reported as 108%.
`O=C(c1ccc(F)c(F)c1)N1CCN=C1SCc1cccnc1` showed a host macrophage viability of 107 ± 11%.
`Cc1ccc(-c2cc3nc(-c4cccnc4)cc(C(F)(F)F)n3n2)cc1` was tested, and the host macrophage viability was 129%.
For `CC1CCc2[nH]nc(-c3nc(-c4ccc(Cl)cc4)no3)c2C1` (stereo not drawn), the host macrophage viability was 98.8%.
Work on `CCOC(=O)c1cc(C)nc2c1c(=O)n(CC(=O)NCc1ccc(C)cc1)c(=O)n2C` yielded a host macrophage viability of 118%.
Molecule `O=C(Nc1ccccc1-n1cccc1)c1cccc2nccnc12` has a host macrophage viability of 115%.
For `CCN(CC)CCN1C(=O)C(O)=C(C(=O)c2cc3ccccc3o2)C1c1ccccn1` (stereo not drawn), the host macrophage viability was 110%.
With `Cc1ccc(C)c(S(=O)(=O)Nc2cc3c4c(c2)CCC(=O)N4CCC3)c1` the host macrophage viability was 111%.
`O=C(CC(NCc1ccccn1)C(=O)O)Nc1cccc([N+](=O)[O-])c1` (stereo not drawn) was tested, and the host macrophage viability was 110%.
`COc1cc2nc(NC(=O)c3ccco3)sc2cc1OC` gave a host macrophage viability of 110%.
With `Nc1c(-c2nc(-c3ccc4c(c3)OCO4)no2)nnn1-c1cccc(C(F)(F)F)c1` the host macrophage viability was 126%.
`CCOc1ccc2nc(NC(=O)C3CCCN(c4ncnc5sc(CC)cc45)C3)sc2c1` (stereo not drawn) gave a host macrophage viability of 117%.
`c1ccc(Cc2nc3ccccc3c3nnc(SCc4ccccn4)n23)cc1` gave a host macrophage viability of 78.5%.
For `C#CCOc1cccc(C2CC(=O)Nc3c2c(C)nn3-c2nncc(-c3cccc(OC)c3)n2)c1` (stereo not drawn), the host macrophage viability was 104%.
In the case of `COC(=O)Cn1/c(=N/C(=O)c2ccc(F)cc2)sc2cc(S(N)(=O)=O)ccc21`, the host macrophage viability is reported as 125%.
For `Cc1ccc(S(=O)(=O)c2nccn3nc(-c4ccc(Cl)cc4)cc23)cc1`, the host macrophage viability was 141%.
